PubChem BioAssay AID1053209 – Peter MacCallum Cancer Centre | 2014

- Purpose: 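Gene losses that combine with doxorubicin to kill mouse bone cancer cells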 (follow-up of hits)
- Cell system: mouse primary osteosarcoma cells
- Knock-down reagent: single siRNA against mouse genes, 25 nM (text also states 40 nM)
- Duration: about 120 h (48 h before drug, then 72 h with drug)
- Conditions: doxorubicin 100 nM (about IC30-40), added 48 h after transfection, for 72 h
- Measurement: 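Viability measured by ATP luminescence with and without doxorubicin, each replicate scaled to non-targeting siRNA NT1, averaged over two replicates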
- Scale: viability with doxorubicin, vs NT1: higher = more viable cells under doxorubicin; viability without drug, vs NT1: higher = more viable cells without drug
- Hit rule: 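Active when doxorubicin viability is at most 0.7 of NT1 and drug-free viability lies between 0.7 and 1.1, class LC dox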
In all, the deposit lists about 1,580 reagents; below is a random part of them. 207 of all reagents (13%) count as active. 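Rows are single siRNAs; four siRNAs per gene were tested, a gene counting as confirmed only when at least two agree.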 The numbers tell different reagents against one gene apart. Not all columns of the deposit are shown.

gene	siRNA no.	combined effect class	viability with doxorubicin, vs NT1	viability without drug, vs NT1	Outcome
Rassf2 (Ras association (RalGDS/AF-6) domain family member 2)	1	normal viability with and without drug	0.98	1.05	inactive
Rassf2 (Ras association (RalGDS/AF-6) domain family member 2)	2	normal viability with and without drug	0.92	0.98	inactive
Rassf2 (Ras association (RalGDS/AF-6) domain family member 2)	3	normal viability with and without drug	0.82	0.94	inactive
Rassf2 (Ras association (RalGDS/AF-6) domain family member 2)	4	normal viability with and without drug	1.07	1.02	inactive
Mphosph10	1	normal viability with and without drug	0.81	0.86	inactive
Mphosph10	2	normal viability with and without drug	0.97	0.9	inactive
Mphosph10	3	normal viability with and without drug	0.81	0.9	inactive
Mphosph10	4	normal viability with and without drug	0.92	0.98	inactive
Hspa9 (heat shock protein family A (Hsp70) member 9)	1	low viability with and without drug	0.48	0.6	inactive
Hspa9 (heat shock protein family A (Hsp70) member 9)	2	low viability with and without drug	0.38	0.63	inactive
Hspa9 (heat shock protein family A (Hsp70) member 9)	3	low viability with and without drug	0.45	0.48	inactive
Hspa9 (heat shock protein family A (Hsp70) member 9)	4	normal viability with and without drug	0.9	0.98	inactive
Bid (BH3 interacting domain death agonist)	1	high viability only with doxorubicin	1.12	0.9	inactive
Bid (BH3 interacting domain death agonist)	2	normal viability with and without drug	1.08	0.99	inactive
Bid (BH3 interacting domain death agonist)	3	normal viability with and without drug	1.07	0.94	inactive
Bid (BH3 interacting domain death agonist)	4	high viability only with doxorubicin	1.19	0.96	inactive
Rab40b (Rab40B, member RAS oncogene family)	1	normal viability with and without drug	1.06	1	inactive
Rab40b (Rab40B, member RAS oncogene family)	2	normal viability with and without drug	1.06	0.96	inactive
Rab40b (Rab40B, member RAS oncogene family)	3	normal viability with and without drug	0.84	0.91	inactive
Rab40b (Rab40B, member RAS oncogene family)	4	normal viability with and without drug	0.98	0.98	inactive
Cd2bp2 (CD2 cytoplasmic tail binding protein 2)	1	normal viability with and without drug	1.02	0.94	inactive
Cd2bp2 (CD2 cytoplasmic tail binding protein 2)	2	normal viability with and without drug	0.86	1.02	inactive
Cd2bp2 (CD2 cytoplasmic tail binding protein 2)	3	normal viability with and without drug	1.08	1	inactive
Cd2bp2 (CD2 cytoplasmic tail binding protein 2)	4	normal viability with and without drug	1.02	1.02	inactive
Rpa3 (replication protein A3)	1	high viability only with doxorubicin	1.12	1.04	inactive
Rpa3 (replication protein A3)	2	low viability only with doxorubicin; normal without drug	0.4	0.88	active
Rpa3 (replication protein A3)	3	low viability only with doxorubicin; normal without drug	0.62	0.86	active
Rpa3 (replication protein A3)	4	low viability with and without drug	0.31	0.56	inactive
Gabarapl2 (GABA type A receptor associated protein like 2)	1	normal viability with and without drug	0.96	1.01	inactive
Gabarapl2 (GABA type A receptor associated protein like 2)	2	normal viability with and without drug	0.76	0.89	inactive
Gabarapl2 (GABA type A receptor associated protein like 2)	3	normal viability with and without drug	0.84	0.91	inactive
Gabarapl2 (GABA type A receptor associated protein like 2)	4	normal viability with and without drug	0.82	0.9	inactive
Asb14 (ankyrin repeat and SOCS box-containing 14)	1	normal viability with and without drug	1.02	0.94	inactive
Asb14 (ankyrin repeat and SOCS box-containing 14)	2	high viability only with doxorubicin	1.1	1.06	inactive
Asb14 (ankyrin repeat and SOCS box-containing 14)	3	low viability only with doxorubicin; normal without drug	0.7	0.88	active
Asb14 (ankyrin repeat and SOCS box-containing 14)	4	normal viability with and without drug	1.02	0.84	inactive
Rpl7 (ribosomal protein L7)	1	low viability with and without drug	0.34	0.55	inactive
Rpl7 (ribosomal protein L7)	2	low viability with and without drug	0.18	0.32	inactive
Rpl7 (ribosomal protein L7)	3	low viability with and without drug	0.24	0.38	inactive
Rpl7 (ribosomal protein L7)	4	low viability with and without drug	0.23	0.38	inactive
Rpa2 (replication protein A2)	1	low viability only with doxorubicin; normal without drug	0.6	0.94	active
Rpa2 (replication protein A2)	2	low viability only with doxorubicin; normal without drug	0.34	0.71	active
Rpa2 (replication protein A2)	3	normal viability with and without drug	0.77	0.93	inactive
Rpa2 (replication protein A2)	4	low viability with and without drug	0.38	0.7	inactive
Kmt5a (lysine methyltransferase 5A)	1	normal viability with and without drug	0.83	0.91	inactive
Kmt5a (lysine methyltransferase 5A)	2	normal viability with and without drug	0.9	0.9	inactive
Kmt5a (lysine methyltransferase 5A)	3	low viability with and without drug	0.25	0.46	inactive
Kmt5a (lysine methyltransferase 5A)	4	normal viability with and without drug	1.01	1.03	inactive
Il1r1 (interleukin 1 receptor, type I)	1	normal viability with and without drug	1.05	1.03	inactive
Il1r1 (interleukin 1 receptor, type I)	2	normal viability with and without drug	1.04	1	inactive
Il1r1 (interleukin 1 receptor, type I)	3	normal viability with and without drug	1.06	1	inactive
Il1r1 (interleukin 1 receptor, type I)	4	low viability only with doxorubicin; normal without drug	0.42	0.76	active
Med8 (mediator complex subunit 8)	1	low viability only with doxorubicin; normal without drug	0.58	0.89	active
Med8 (mediator complex subunit 8)	2	normal viability with and without drug	0.94	0.92	inactive
Med8 (mediator complex subunit 8)	3	normal viability with and without drug	0.86	1.01	inactive
Med8 (mediator complex subunit 8)	4	high viability only with doxorubicin	1.12	0.98	inactive
Slc19a3	1	normal viability with and without drug	0.74	0.8	inactive
Slc19a3	2	normal viability with and without drug	0.98	1.05	inactive
Slc19a3	3	low viability only with doxorubicin; normal without drug	0.65	0.82	active
Slc19a3	4	normal viability with and without drug	1.05	1.09	inactive

Single entries from above.
Rab40b (Rab40B, member RAS oncogene family) #3, viability with doxorubicin, vs NT1: 0.84
Entry for Rpa3 (replication protein A3) #2 in “Outcome”: active
Gabarapl2 (GABA type A receptor associated protein like 2) #1, viability without drug, vs NT1: 1.01
Entry of Med8 (mediator complex subunit 8) #3 in “viability with doxorubicin, vs NT1”: 0.86
For “viability without drug, vs NT1”, Rassf2 (Ras association (RalGDS/AF-6) domain family member 2) #4 shows 1.02
For “viability with doxorubicin, vs NT1”, Rab40b (Rab40B, member RAS oncogene family) #4 shows 0.98
